PubChem BioAssay AID602196 – INSERM, 2012
Purpose: 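Modifiers of cisplatin sensitivity in A549 cells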. Cell system: human A549 lung cancer cells. Knock-down reagent: siRNA pair against human genes. Timing: 48 h transfection before cisplatin; time from cisplatin to read-out not stated. Challenge: cisplatin at a dose killing half of control-siRNA cells; exact dose and duration not given. Measurement: 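Cisplatin cell death as a shift from the 50% death seen with control siRNA; siRNAs toxic or growth-blocking alone scored 0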. Direction: two-siRNA summed score (-2 to +2): higher = both siRNAs protect from cisplatin killing; -2 means both sensitise; mean protection from cisplatin (shift in death): higher = protection from cisplatin killing. Active means: 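Each siRNA scores 0 if harmful alone by LDH or WST-1, otherwise +1 if it reduces and -1 if it increases cisplatin killing; a gene is active when both siRNAs agree (sum +2 or -2)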. Calls: active = both siRNAs shift cisplatin killing the same way; inactive = no consistent shift, or siRNA harmful alone.
The deposit covers about 23,000 reagents; this is a part drawn at random. 455 of them (2%) were called active. 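Active includes both protection and sensitisation; some change values fall well beyond the stated -50 to +50 range.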 Not all columns of the deposit are shown. No sequences are given here. Not given: the amount of reagent.

DENND2D
- two-siRNA summed score (-2 to +2): 0
- mean protection from cisplatin (shift in death) (%): -2.6
- call: inactive

SATB2-AS1
- two-siRNA summed score (-2 to +2): 0
- mean protection from cisplatin (shift in death) (%): 5.2
- call: inactive

FAM90A1
- two-siRNA summed score (-2 to +2): 0
- mean protection from cisplatin (shift in death) (%): 5.3
- call: inactive

GKN2
- two-siRNA summed score (-2 to +2): 0
- mean protection from cisplatin (shift in death) (%): -1.9
- call: inactive

SMIM10L2A
- two-siRNA summed score (-2 to +2): 0
- mean protection from cisplatin (shift in death) (%): 13.9
- call: inactive

MIRLET7BHG
- two-siRNA summed score (-2 to +2): 0
- mean protection from cisplatin (shift in death) (%): 6.5
- call: inactive

FLJ37858
- two-siRNA summed score (-2 to +2): 0
- mean protection from cisplatin (shift in death) (%): 9
- call: inactive

MAP7D1
- two-siRNA summed score (-2 to +2): 0
- mean protection from cisplatin (shift in death) (%): 8.6
- call: inactive

LOC440048
- two-siRNA summed score (-2 to +2): 0
- mean protection from cisplatin (shift in death) (%): 0.4
- call: inactive

EMC8
- two-siRNA summed score (-2 to +2): 0
- mean protection from cisplatin (shift in death) (%): 4.8
- call: inactive

INCENP
- two-siRNA summed score (-2 to +2): 0
- mean protection from cisplatin (shift in death) (%): 4.8
- call: inactive

DCTN1
- two-siRNA summed score (-2 to +2): 0
- mean protection from cisplatin (shift in death) (%): 0.2
- call: inactive

RNF103
- two-siRNA summed score (-2 to +2): -2
- mean protection from cisplatin (shift in death) (%): -23
- call: active

KCNK9
- two-siRNA summed score (-2 to +2): 0
- mean protection from cisplatin (shift in death) (%): 3.5
- call: inactive

SPATA7
- two-siRNA summed score (-2 to +2): 1
- mean protection from cisplatin (shift in death) (%): 17.1
- call: inactive

ZCCHC12
- two-siRNA summed score (-2 to +2): 0
- mean protection from cisplatin (shift in death) (%): 3.8
- call: inactive

LOC401701
- two-siRNA summed score (-2 to +2): 0
- mean protection from cisplatin (shift in death) (%): 2.9
- call: inactive

BAG2
- two-siRNA summed score (-2 to +2): 1
- mean protection from cisplatin (shift in death) (%): 17.8
- call: inactive

TLCD4
- two-siRNA summed score (-2 to +2): 0
- mean protection from cisplatin (shift in death) (%): -2.9
- call: inactive

LOC389827
- two-siRNA summed score (-2 to +2): 1
- mean protection from cisplatin (shift in death) (%): 8.7
- call: inactive

TMEM105
- two-siRNA summed score (-2 to +2): 0
- mean protection from cisplatin (shift in death) (%): -10.5
- call: inactive

SMIM3
- two-siRNA summed score (-2 to +2): 0
- mean protection from cisplatin (shift in death) (%): 9.2
- call: inactive

BATF
- two-siRNA summed score (-2 to +2): 0
- mean protection from cisplatin (shift in death) (%): 11.4
- call: inactive

LOC402527
- two-siRNA summed score (-2 to +2): 0
- mean protection from cisplatin (shift in death) (%): 3.3
- call: inactive

TCEAL2
- two-siRNA summed score (-2 to +2): 0
- mean protection from cisplatin (shift in death) (%): 5
- call: inactive

LOC441426
- two-siRNA summed score (-2 to +2): 1
- mean protection from cisplatin (shift in death) (%): 19.7
- call: inactive

LOC442622
- two-siRNA summed score (-2 to +2): 1
- mean protection from cisplatin (shift in death) (%): 13.1
- call: inactive

LOC440806
- two-siRNA summed score (-2 to +2): 1
- mean protection from cisplatin (shift in death) (%): 19.8
- call: inactive

C20orf203
- two-siRNA summed score (-2 to +2): 0
- mean protection from cisplatin (shift in death) (%): 3.2
- call: inactive

TRPC3
- two-siRNA summed score (-2 to +2): 0
- mean protection from cisplatin (shift in death) (%): 16.6
- call: inactive

DAO
- two-siRNA summed score (-2 to +2): 1
- mean protection from cisplatin (shift in death) (%): 13.8
- call: inactive

Individual results from the list.
Value for EMC8 in “call”: inactive
Value of TLCD4 under “two-siRNA summed score (-2 to +2)”: 0
Entry for BATF under “two-siRNA summed score (-2 to +2)”: 0
Entry of SMIM10L2A in “two-siRNA summed score (-2 to +2)”: 0
